Results reported in patent US20080090878A1, “Pharmaceutical combinations and their use in treating gastrointestinal and abdominal viscera disorders” (priority 1999, published 2008).
For at least one compound, name, drawing or mass did not settle the structure.

Tested on: Guinea-Pig Colon Entero-Chromaffin Cells
Experiment: Release of serotonin (5HT) from guinea-pig colon entero-chromaffin cells, organ bath, HPLC
Assay type: cell-based, guinea-pigs
Settings: 1 microM, atropine-sensitive, guinea-pig proximal colon
Protocol: Male guinea-pigs, 200-400 g are stunned and bled. Segments of the proximal colon are removed and suspended, as described by Trendelenburg in Arch. Exp. Path. Pharmakol., 81, 55-129 (1917), in a 20 ml organ bath. The tissue is bathed with a modified Krebs solution (NaCl 118.6; CaCl2 2.7; KCl 4.7; KH2 PO4 1.2; MgSO4 0.1; NaHCO3 25.0; and glucose 5.6 mM), maintained at 37° C. 5-HT is determined by high-performance liquid chromatography with electro-chemical detection. […] To individual organ baths the following agents are added prior to the addition of physostigmine (1 microM): 1) no addition (negative control), 2) atropine (0.2 microM) (positive control), 3) hexamethonium (100 microM) (positive control), 4) tegaserod, 5) cilansetron, 6) prucalopride, 7) A-85380, 8) fedotozine, 9) chlordiazepoxide, 10) CGP49823, 11) buproprion, 12) fluvoxamine, 13) tegaserod plus cilansetron, 14) tegaserod plus prucalopride, 15) tegaserod plus A-85380, 16)-tegaserod plus fedotozine, 17) tegaserod plus chlordiazepoxide, 18) tegaserod plus SDZ-NKT-343, 19) tegaserod plus buproprion, or 20) tegaserod plus fluvoxamine. The combination of agents results in an amplification of the reduction of physostigmine-induced serotonin outflow as compared to any of the agents alone.

## CNC(=O)Oc1ccc2c(c1)[C@]1(C)CCN(C)[C@@H]1N2C [Physostigmine]
  5-HT outflow from entero-chromaffin cells: great increase
